{
  "source": "the supplement of paper PMC12873370",
  "key": {"[1]": {"tested_on": "MEPP (mouse ovarian epithelium Trp53/Pten KO)", "experiment": "cell viability relative to untreated (fraction); higher = less growth inhibition", "settings": "5 µM; 3 days"}, "[2]": {"tested_on": "PREPP (mouse prostate epithelium Trp53/Pten KO)", "experiment": "cell viability relative to untreated (fraction); higher = less growth inhibition", "settings": "5 µM; 3 days"}},
  "note": "“And” between values parts separate entries of the source, which are not always exact repeats. Identical values can stand only once. This is one part of the list. Many values rest on one well or one pass, so single values are uncertain.",
  "data": [
    {"smiles": "O=C(Nc1nc2cccc(-c3ccc(CN4CCS(=O)(=O)CC4)cc3)n2n1)C1CC1", "values": [
      {"measurement": "cell viability", "setting": "[1]", "result": 0.843},
      {"measurement": "cell viability", "setting": "[2]", "result": 0.746}
    ]},
    {"smiles": "Oc1nc(-c2ccc(C(F)(F)F)cc2)nc2c1CSCC2", "values": [
      {"measurement": "cell viability", "setting": "[1]", "result": 1.1},
      {"measurement": "cell viability", "setting": "[2]", "result": 0.829}
    ]},
    {"smiles": "COc1ccc(C2(CNC(=O)c3ccc(NC(=O)c4ccco4)cc3)CCOCC2)cc1", "values": [
      {"measurement": "cell viability", "setting": "[1]", "result": 0.765},
      {"measurement": "cell viability", "setting": "[2]", "result": 0.87}
    ]},
    {"smiles": "O=C(CCCCCCC(=O)Nc1ccccc1)NO", "values": [
      {"measurement": "cell viability", "setting": "[1]", "result": 0.809},
      {"measurement": "cell viability", "setting": "[2]", "result": 0.721}
    ]},
    {"smiles": "COc1cc2ncnc(Nc3ccc(O)c(Br)c3)c2cc1OC", "values": [
      {"measurement": "cell viability", "setting": "[1]", "result": 0.791},
      {"measurement": "cell viability", "setting": "[2]", "result": 0.687}
    ]},
    {"smiles": "O=S(=O)(c1cccc2cnccc12)N1CCNCC1", "values": [
      {"measurement": "cell viability", "setting": "[1]", "result": 0.875},
      {"measurement": "cell viability", "setting": "[2]", "result": 0.771}
    ]},
    {"smiles": "Cn1cc(/C=C/C(=O)c2cccc(F)c2)cc1/C=C/C(=O)NO", "values": [
      {"measurement": "cell viability", "setting": "[1]", "result": 1},
      {"measurement": "cell viability", "setting": "[2]", "result": 0.747}
    ]},
    {"smiles": "CCn1c(C(=O)N(C2CC2)C2CC2)cc2c3c(ncn3C)c(Nc3cc(C)n(C)n3)nc21", "values": [
      {"measurement": "cell viability", "setting": "[1]", "result": 0.677},
      {"measurement": "cell viability", "setting": "[2]", "result": 0.626}
    ]},
    {"smiles": "CC1COc2c(N3CCN(C)CC3)c(F)cc3c(=O)c(C(=O)O)cn1c23", "note": "(stereo unspecified)", "values": [
      {"measurement": "cell viability", "setting": "[1]", "result": 0.799},
      {"measurement": "cell viability", "setting": "[2]", "result": 0.989}
    ]},
    {"smiles": "Cc1csc(-c2nnc(Nc3ccc(Oc4ncccc4-c4ccnc(N)n4)cc3)c3ccccc23)c1", "values": [
      {"measurement": "cell viability", "setting": "[1]", "result": 0.598},
      {"measurement": "cell viability", "setting": "[2]", "result": 0.532}
    ]},
    {"smiles": "NC1CCCN(c2c(/C=C3/SC(=O)NC3=O)cccc2-c2ccccc2)C1", "note": "(stereo unspecified)", "values": [
      {"measurement": "cell viability", "setting": "[1]", "result": 0.913},
      {"measurement": "cell viability", "setting": "[2]", "result": 0.802}
    ]},
    {"smiles": "CCC(CC)(NC(=O)C(C)C)C(=O)N[C@@H](CCCN=C(N)N)C(=O)NC1(C(=O)NC(c2ccc(F)cc2)c2ccc(F)cc2)CCCC1", "values": [
      {"measurement": "cell viability", "setting": "[1]", "result": 1.07},
      {"measurement": "cell viability", "setting": "[2]", "result": 0.894}
    ]},
    {"smiles": "C[C@]1(c2nc3c(C(N)=O)cccc3[nH]2)CCCN1", "values": [
      {"measurement": "cell viability", "setting": "[1]", "result": "1.07 and 0.993"},
      {"measurement": "cell viability", "setting": "[2]", "result": "0.81 and 0.911"}
    ]},
    {"smiles": "CC(C)N(CCC(=O)c1ccc2ccccc2c1)Cc1ccccc1", "values": [
      {"measurement": "cell viability", "setting": "[1]", "result": 0.833},
      {"measurement": "cell viability", "setting": "[2]", "result": 0.814}
    ]},
    {"smiles": "NC(N)=N/N=C/c1ccccc1Cl", "values": [
      {"measurement": "cell viability", "setting": "[1]", "result": 1.1},
      {"measurement": "cell viability", "setting": "[2]", "result": 0.877}
    ]},
    {"smiles": "COc1ccccc1C(=O)Nc1cc2c(cc1N1CCCCC1)n(C)c(=O)n2C", "values": [
      {"measurement": "cell viability", "setting": "[1]", "result": 1.03},
      {"measurement": "cell viability", "setting": "[2]", "result": 0.844}
    ]},
    {"smiles": "CCN(CC)Cc1ccc2cc(COC(=O)Nc3ccc(C(=O)NO)cc3)ccc2c1", "values": [
      {"measurement": "cell viability", "setting": "[1]", "result": 0.826},
      {"measurement": "cell viability", "setting": "[2]", "result": 0.554}
    ]},
    {"smiles": "CCN(CC)C(=O)/C(C#N)=C/c1cc(O)c(O)c([N+](=O)[O-])c1", "values": [
      {"measurement": "cell viability", "setting": "[1]", "result": 0.978},
      {"measurement": "cell viability", "setting": "[2]", "result": 1.03}
    ]},
    {"smiles": "O=Nc1c(-c2c(O)[nH]c3cc(Br)ccc23)[nH]c2ccccc12", "values": [
      {"measurement": "cell viability", "setting": "[1]", "result": 0.708},
      {"measurement": "cell viability", "setting": "[2]", "result": 0.371}
    ]},
    {"smiles": "C1=N/C2=N/c3ccc(OCCN4CCCC4)c(c3)COC/C=C/COCc3cccc(c3)C(=C1)N2", "values": [
      {"measurement": "cell viability", "setting": "[1]", "result": 0.706},
      {"measurement": "cell viability", "setting": "[2]", "result": 0.755}
    ]},
    {"smiles": "N#Cc1c(O)c2c(-c3ccc(-c4ccccc4O)cc3)csc2[nH]c1=O", "values": [
      {"measurement": "cell viability", "setting": "[1]", "result": 0.863},
      {"measurement": "cell viability", "setting": "[2]", "result": 0.859}
    ]},
    {"smiles": "C#CCC(CCCCCC)C(=O)O", "note": "(stereo unspecified)", "values": [
      {"measurement": "cell viability", "setting": "[1]", "result": 0.96},
      {"measurement": "cell viability", "setting": "[2]", "result": 0.982}
    ]},
    {"smiles": "CCCc1cc(C)[nH]c(=O)c1CNC(=O)c1cc(-c2ccc(N3CCN(C(C)C)CC3)nc2)cc2c1cnn2C(C)C", "values": [
      {"measurement": "cell viability", "setting": "[1]", "result": 1.01},
      {"measurement": "cell viability", "setting": "[2]", "result": 0.785}
    ]},
    {"smiles": "CCC(Sc1nnc2c(n1)[nH]c1ccccc12)C(=O)N1c2ccccc2Sc2ccccc21", "note": "(stereo unspecified)", "values": [
      {"measurement": "cell viability", "setting": "[1]", "result": 0.715},
      {"measurement": "cell viability", "setting": "[2]", "result": 0.742}
    ]},
    {"smiles": "CNCc1ccc(-c2[nH]c3cc(F)cc4c3c2CCNC4=O)cc1", "values": [
      {"measurement": "cell viability", "setting": "[1]", "result": "0.923 and 0.847"},
      {"measurement": "cell viability", "setting": "[2]", "result": "0.816 and 0.83"}
    ]},
    {"smiles": "CCn1c(-c2nonc2N)nc2c(C#CC(C)(C)O)ncc(OC[C@H]3CCCNC3)c21", "values": [
      {"measurement": "cell viability", "setting": "[1]", "result": 0.646},
      {"measurement": "cell viability", "setting": "[2]", "result": 0.762}
    ]},
    {"smiles": "O=C(O)[C@]1(Cc2cccc(Nc3nccs3)n2)CC[C@@H](Oc2cccc(Cl)c2F)CC1", "values": [
      {"measurement": "cell viability", "setting": "[1]", "result": 0.593},
      {"measurement": "cell viability", "setting": "[2]", "result": 0.747}
    ]},
    {"smiles": "N#Cc1ccc(COc2ccc(-c3cccc4nc(NC(=O)C5CC5)nn34)cc2)cn1", "values": [
      {"measurement": "cell viability", "setting": "[1]", "result": 0.79},
      {"measurement": "cell viability", "setting": "[2]", "result": 0.707}
    ]},
    {"smiles": "O=C(NC[C@H](O)CN1CCc2ccccc2C1)c1ccnc(NC2CCC2)c1", "values": [
      {"measurement": "cell viability", "setting": "[1]", "result": 1.16},
      {"measurement": "cell viability", "setting": "[2]", "result": 1.06}
    ]},
    {"smiles": "Nc1ccccc1NC(=O)CCCCCCC(=O)Nc1ccccc1", "values": [
      {"measurement": "cell viability", "setting": "[1]", "result": 1.03},
      {"measurement": "cell viability", "setting": "[2]", "result": 0.878}
    ]},
    {"smiles": "CC(C)(C)c1nc2c3cc[nH]c(=O)c3c3cc(F)ccc3c2[nH]1", "values": [
      {"measurement": "cell viability", "setting": "[1]", "result": 0.727},
      {"measurement": "cell viability", "setting": "[2]", "result": 0.711}
    ]},
    {"smiles": "CCCCCCCCCCCCCC(=S)NCCCC[C@H](NC(=O)OCc1ccccc1)C(=O)Nc1ccccc1", "values": [
      {"measurement": "cell viability", "setting": "[1]", "result": 1.07},
      {"measurement": "cell viability", "setting": "[2]", "result": 0.94}
    ]},
    {"smiles": "O=C(c1cc(Cc2n[nH]c(=O)c3ccccc23)ccc1F)N1CCN(C(=O)C2CC2)CC1", "values": [
      {"measurement": "cell viability", "setting": "[1]", "result": 0.937},
      {"measurement": "cell viability", "setting": "[2]", "result": 0.808}
    ]},
    {"smiles": "COc1cc2c(NC3CCN(C4CCCCC4)CC3)nc(N3CCCN(C(C)C)CC3)nc2cc1OCCCN1CCCCC1", "values": [
      {"measurement": "cell viability", "setting": "[1]", "result": 0.765},
      {"measurement": "cell viability", "setting": "[2]", "result": 0.802}
    ]},
    {"smiles": "COc1cccc2c1C(=O)c1c(O)c3c(c(O)c1C2=O)C[C@@](O)(C(=O)CO)C[C@@H]3O[C@H]1C[C@H](N)[C@H](O)[C@H](C)O1", "values": [
      {"measurement": "cell viability", "setting": "[1]", "result": 0.38},
      {"measurement": "cell viability", "setting": "[2]", "result": 0.46}
    ]},
    {"smiles": "CCOC(=O)Nc1cc(-c2ccc(C)c(NS(C)(=O)=O)c2)nn2c(C)nnc12", "values": [
      {"measurement": "cell viability", "setting": "[1]", "result": 0.668},
      {"measurement": "cell viability", "setting": "[2]", "result": 0.623}
    ]},
    {"smiles": "Cc1cc(Nc2nc(N[C@@H](C)c3ncc(F)cn3)ncc2Cl)[nH]n1", "values": [
      {"measurement": "cell viability", "setting": "[1]", "result": 0.748},
      {"measurement": "cell viability", "setting": "[2]", "result": 0.712}
    ]},
    {"smiles": "CC[C@@](C)(Nc1ccnc(-c2c[nH]c3ncccc23)n1)C(=O)NCC(F)(F)F", "values": [
      {"measurement": "cell viability", "setting": "[1]", "result": 0.957},
      {"measurement": "cell viability", "setting": "[2]", "result": 0.966}
    ]}
  ]
}
